From article PMC4707540
These are yes or no findings as the source states them, for the method shown. Binding seen in cells or lysates may run through a third protein. For some assays here: Binding can be weak; no strength is given.

Chains of the proteins cited; added tags and fusions are not shown.
UniProt P40337: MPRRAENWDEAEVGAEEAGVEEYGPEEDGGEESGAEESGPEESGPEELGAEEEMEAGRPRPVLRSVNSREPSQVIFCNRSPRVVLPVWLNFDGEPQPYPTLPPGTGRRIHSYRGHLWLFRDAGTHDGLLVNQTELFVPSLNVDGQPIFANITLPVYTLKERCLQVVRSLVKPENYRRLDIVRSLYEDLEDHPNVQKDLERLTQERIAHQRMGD

What was measured:
[1] = target: TDP-43-FLAG devoid of RRM2 (ΔRRM2) (human) (UniProt Q13148); test: co-IP; lysates of HEK293A cells co-transfected with a FLAG-tagged protein (TDP-43 or SOD1 forms) and HA-VHL, 48 h after transfection; anti-FLAG M2 affinity gel at 4 °C overnight, blotted with anti-HA; co-IP buffer (20 mM HEPES pH 7.4, 125 mM NaCl, 2 mM EDTA, 1% Triton X-100, 10% glycerol); in some panels cells treated with lactacystin (10 μM, 8 h) and/or paraquat (0.4 mM, 8 h)
[2] = target: TDP-43-FLAG devoid of RRM1 (ΔRRM1) (human) (UniProt Q13148); test: as above

binding [1]: no binding
binding [2]: binds
Substance: human VHL tagged with HA (HA-VHL) (from UniProt P40337 1-213)
